Measured data: PubChem BioAssay AID504786 (Drosophila RNAi Screening Center, 2011)

Screen: 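Fly genes required for HIF-dependent transcription when hypoxia is mimicked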 (primary screen)
Cell system: Drosophila S2 cells with a stable HIF luciferase reporter
Reagent: long dsRNA against Drosophila genes, about 0.2 µg dsRNA per well of a 384-well plate
Time to read-out: three days of knock-down, then 20 h of DFO before reading
Challenge: desferrioxamine (DFO) at 100 µM, an iron chelator that mimics hypoxia, for 20 h
Detection: 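Firefly luciferase driven by the mouse ldh-a hypoxia-response element, measured after 20 h of 100 µM DFO; z-scores per plate, higher means more signal lost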
Reading the numbers: z-score: higher = stronger loss of HIF reporter signal
The screen tested about 21,000 reagents; this is a random part of those that have a named target and a result. 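Primary screen; positive scores mean lost reporter signal, so the sign may be inverted from the usual convention.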 Names joined by + are all predicted targets of the reagent. Not all columns of the deposit are shown.

| gene | PubChem SID | z-score, replicate 1 |
| --- | --- | --- |
| CG14301 | SID104194572 | -1.1 |
| ras | SID104198617 | -0.6 |
| eIF3c | SID104186697 | 5.2 |
| hpRNA:CR32205 | SID104189682 | -0.2 |
| CG10734 | SID104185790 | -0.3 |
| Sec10 | SID104196845 | -0.3 |
| pcs | SID104186834 | -0.4 |
| UbcE2H | SID104198013 | -0.3 |
| Ppt2 | SID104182578 | -0.3 |
| SIFa | SID104184272 | -0.1 |
| RpL24 | SID104182977 | 0.2 |
| Shab | SID104187805 | -0.3 |
| Shab | SID104188435 | -0.5 |
| Shab | SID104188491 | 0 |
| snsl | SID104180335 | -0.3 |
| Invadolysin | SID104195319 | -0.2 |
| su(w[a]) | SID104198632 | 0.5 |
| Tsp39D | SID104182891 | -0.2 |
| CG15322 | SID104200472 | -0.9 |
| ball | SID104193937 | -0.6 |
| Cyp4p2 | SID104187165 | -0.2 |
| CG12436 (retired record) | SID104189661 | -0.2 |
| CG12436 (retired record) | SID104189677 | -0.4 |
| HBS1 | SID104188336 | -0.3 |
| Muc12Ea | SID104199729 | -0.4 |
| Synj | SID104184318 | -0.3 |
| RPA3 | SID104199450 | -0.2 |
| CG32582 (retired record) | SID104198906 | -0.4 |
| CG15145 | SID104182238 | -0.2 |
| ksh | SID104199346 | -0.4 |
| Gfat2 | SID104194390 | -0.4 |
| CG2224 | SID104195221 | -0.3 |
| CG7849 | SID104184687 | 0.2 |
| CG14655 | SID104192033 | -0.1 |
| CG8671 | SID104182894 | -0.2 |
| CG8671 | SID104182895 | -0.3 |
| Raf | SID104198613 | -0.2 |
| CG11029 | SID104181911 | -0.2 |
| CG7556 | SID104199844 | -0.5 |
| Sry-alpha | SID104196659 | 0.1 |
| Cpr92A | SID104195792 | -0.2 |
| lama | SID104191153 | -0.3 |
| Rheb | SID104191940 | 4.7 |
| Cap-D3 + tomb | SID104182139 | -0.3 |
| Bdp1 | SID104182984 | 0.1 |
| beat-Ic | SID104181316 | -0.3 |
| beat-Ic | SID104183283 | -0.5 |
| CG8939 | SID104199919 | -0.1 |
| CG42307 + mus312 | SID104190800 | -0.3 |
| CG4452 | SID104190214 | 0.3 |
| Apc2 | SID104193907 | -0.2 |
| CG42518 + MED9 | SID104186709 | -0.2 |
| CG18766 | SID104195728 | -0.3 |
| CCAP | SID104195466 | -0.1 |
| lab | SID104192419 | -0.2 |
| ZC3H3 | SID104190488 | 6.5 |
| G9a | SID104198411 | -0.3 |
| CtsL2 | SID104186770 | -0.3 |
| ogre | SID104198601 | -0.4 |
| CG9410 + CG15908 | SID104184768 | -0.2 |
| CG9410 + CG15908 | SID104184793 | -0.4 |
| botv | SID104185741 | -0.3 |
| betaNACtes3 | SID104199975 | -0.5 |
| CG31204 | SID104194898 | -0.3 |
| CG15213 | SID104190005 | 1.4 |
| CG9452 | SID104190867 | 1.7 |
| Ten-a | SID104198716 | -0.3 |
| Ten-a | SID104199288 | 0.7 |
| Ten-a | SID104199492 | -0.2 |
| Ten-a | SID104199585 | -0.3 |
| Ten-a | SID104199656 | -0.2 |
| Ten-a | SID104199657 | -0.3 |
| Ten-a | SID104200082 | -0.4 |
| Rpt6 | SID104200363 | 0.6 |
| hry | SID104191145 | 1.7 |
| CG17636 | SID104200440 | -0.1 |
| CG5568 | SID104190310 | -0.2 |
| RhoGAP54D | SID104186782 | -0.3 |
| Dnah3 | SID104187922 | -0.2 |
| Dnah3 | SID104188305 | -0.3 |
| Cyp6u1 | SID104184807 | -0.3 |
| CG32111 (retired record) | SID104188995 | 0 |
| Cul5 | SID104194515 | -0.3 |

As entered above:
Dnah3 [SID104188305], z-score, replicate 1 = -0.3
Cyp4p2 [SID104187165], z-score, replicate 1 = -0.2
CG32582 (retired record) [SID104198906], z-score, replicate 1 = -0.4
For “z-score, replicate 1”, CG32111 (retired record) [SID104188995] reads 0
CtsL2 [SID104186770], z-score, replicate 1 = -0.3
Value of Muc12Ea [SID104199729] under “z-score, replicate 1”: -0.4
